Reference: patent US20040115205A1
Positions count from the first letter of the chain named. Results are given in words; binding and its absence hold for the method and conditions named. Some entries that bind do so weakly or less than the wild type. Blank lines part the entries; values can stand above or below the binder they belong to.

By UniProt entry, the sequences of proteins in these tests, tags left out. Residues count along the entry.
UniProt P43121, residues 24-559: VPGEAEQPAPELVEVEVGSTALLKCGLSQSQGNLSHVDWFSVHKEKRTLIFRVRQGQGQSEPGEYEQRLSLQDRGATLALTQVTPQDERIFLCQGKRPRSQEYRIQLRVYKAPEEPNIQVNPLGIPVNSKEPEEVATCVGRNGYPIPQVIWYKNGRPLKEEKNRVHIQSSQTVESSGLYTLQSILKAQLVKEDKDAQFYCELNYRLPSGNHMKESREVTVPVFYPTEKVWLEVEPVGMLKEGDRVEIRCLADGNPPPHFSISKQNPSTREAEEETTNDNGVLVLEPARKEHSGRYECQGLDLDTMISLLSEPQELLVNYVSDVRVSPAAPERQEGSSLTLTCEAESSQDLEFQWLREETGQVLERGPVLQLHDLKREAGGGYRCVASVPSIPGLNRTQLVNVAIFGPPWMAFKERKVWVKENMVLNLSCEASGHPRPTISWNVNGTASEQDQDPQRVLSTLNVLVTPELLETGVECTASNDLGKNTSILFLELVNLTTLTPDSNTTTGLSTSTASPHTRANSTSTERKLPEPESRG

Molecular target: MUC18 antigen coated on ELISA plates (hybridoma screening) (human) (UniProt P43121)
Assay: antigen-specific ELISA of hybridoma supernatants on antigen coated plates

binding: binds
B1: anti-MUC18 antibody c3.45 (antibody, V domains shown)
VH: QVQLVQSGAEVKKPGASVKVSCKASGYTFFSYGFSWVRQAPGQGLEWLGWISAYNGNTNYAQKLQGRVTMTTDTSTSTAYMELRSLRSDDTAVYYCARETKVRGVHYYGMDVWGQGTTVTVSS
VL: DIVMTQSPDSLAVSLGERATIICKSSQSILYSSNNKNYLGWYQQKPGQPPKLLIYWASTRESGVPARFSGSGSGTDFTLTINSLQAEDVAVYYCQQYYSTPRSFGQGTMVEIK

binding: binds
B2: anti-MUC18 antibody c3.22 (antibody, V domains shown)
VH: QVQLQESGPGLVKPSQTLSLTCTVSGGSISSGGYYWTWIRQHPGKGLEWIGFIYYSGSTYYNPSLKSRVTISVDTSKNQFSLKLSSVTAADTAVYYCAREGDGFDYWGQGTLVTVSS
VL: DIQMTQSPSSLSASVGDRVTITCRASQGIRNDLGWYQQKPGKAPKRLIYAASSLQSGVPSRFSGSGSGTEFTLTISSLQPEDFATYYCLQHNSYPLTFGGGTKVEIK

binding: binds
B3: anti-MUC18 antibody c6.9 (also independently cloned as c6.12) (antibody, V domains shown)
VH: QVQLEQSGPGLVKPSETLSLTCTVSGGSISSGTYHWSWIRQHPGRGLEWIGYIYYSGSTYHNPSLKSRITISVDTSKNQFSLKLSSVTAADTAVYYCARGGDGYRYWGQGTLVTVSS
VL: EIVMTQSPATLSVSPGERATLSCRASQSISNNFAWYQQKPGQAPRLLIFGASTRATGIPARFSGSGSGTEFTLTISSLQSEDFAVYYCQQYNNWPRTFGQGTKVEIK

binding: binds
B4: anti-MUC18 antibody c3.10 (antibody, V domains shown)
VH: QVQLQESGPGLVKPSETLSLTCTVSGGSISSYYWSWIRQPPGKGLEWIGYIYYTWTTNYNPSLKSRVTISVDTSKNQFSLRLSSVTAADTALYYCARDQGQWLLPDAFDIWGQGTMVTVSS
VL: DIQMTQSPSSLSASVGDRVTITCRASQSISNYLNWYQQKPGKAPKLLIYGASSLQSGVPSRFSGSGSGTDFTLTISSLQPEDFATYYCRQSYSTPPECSFGQGTKLEIK

binding: binds
B5: anti-MUC18 antibody c3.27 (antibody, V domains shown)
VH: B4 VH with T57S, L92V
VL: B2 VL with L96W, G100Q

binding: binds
B6: anti-MUC18 antibody c6.2 (antibody, V domains shown)
VH: QVQLQESGPGLVKPSETLSLTCTVSGGSISTYYWSWIRQPPGKGLEWIGYIYYTGNTYYNPSLKSRVTVSVDTSKNQFSLKLNSVTAADTAVYYCARDPGQWLVPDAFDIWGQGTMVSVSS
VL: DIVMTQSPLSLPVIPGEPASISCRSSQSLLQSNGNNYLDWYLQKPGQSPQLLIYLGSNRASGVPDRFSGSGSGTDFTLKISRVEADDVGIYYCMQALQIPLTFGGGTKVEIK
